The text below walks through data of PubChem BioAssay AID1487 (National Center for Advancing Translational Sciences (NCATS), 2009).

The test in a line: qHTS Assay for Modulators of Lamin A Splicing. As to conditions: HeLa LMNA splicing GFP/RFP minigene ratio, 48 h. The procedure, abridged:
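S3 HeLa cells stably expressing lamin A-EGFP splicing minigene plus DsRed2, 600 cells/well, 48 h compound exposure at 37C. Laser-scanning cytometry; analysed as GFP (500-530 nm)/RFP (575-640 nm) total intensity ratio; 0.5% DMSO vehicle.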

Setting [1] is: measured here: GFP splicing reporter channel.
The mark [2] stands for this setting: measured here: RFP viability control channel.

The other results are listed elsewhere or left out. The main result of the screen is listed elsewhere. These columns were measured beside it and carry no call. Compounds called inactive in the main read-out are mostly missing here. Words in brackets tell the shape of the fitted curve; partial curves, single points and poor fits give uncertain potencies.

`CN(C)c1ccc(NC(=O)c2cccc(N3C(=O)CCC3=O)c2)cc1`: the AC50 under setting [1] is 1.12 µM [rising, single point] and the concentration at half-maximal activity (AC50) under setting [2] was 2.24 µM [rising, partial curve]. Regarding `Cc1c(Cl)cccc1-n1nc(C)c2c(C)cc(=O)n(CC(=O)N3CCCc4ccccc43)c21`, the AC50 under setting [2] is 20 µM [rising, single point]. `Cc1ccc(CNC(=O)CCCN2C(=O)CCn3nc(-c4cccn4C)cc32)cc1`: the AC50 runs as follows: under setting [1], 7.94 µM [falling, partial curve, poor fit]; under setting [2], 7.08 µM [falling, full curve]. For `CCOC(=O)c1sc2ccc(S(=O)(=O)N3CCOCC3)cc2c1N`, the AC50 was 12.6 µM [rising, single point] under setting [1] and 20 µM [rising, single point] under setting [2].

For `O=C(NC(Cc1c[nH]c2ccccc12)C(=O)Nc1ccc(F)c([N+](=O)[O-])c1)c1cccs1` (stereo not drawn), the AC50 under setting [2] was 1.12 µM [rising, full curve].

For `COc1ccccc1N1CCN(C(=O)C2CCN(S(=O)(=O)c3ccc(F)cc3)CC2)CC1`, the concentration at half-maximal activity (AC50) under setting [1] is 0.1 µM [rising, partial curve, poor fit]. Consider `C/C(=N\NC(=S)NCc1ccccc1)c1ccc(C(C)(C)C)cc1`, for which the concentration at half-maximal activity (AC50) under setting [2] was 14.1 µM [rising, partial curve]. `CCCNC(=O)C1CCN(c2nc3ccc(C)cc3[nH]2)CC1`: under setting [1], the half-maximal activity concentration (AC50) was 0.447 µM [rising, full curve, poor fit]. `Cc1cnc(=O)[nH]c1SCC(=O)Nc1cc(C(F)(F)F)ccc1Cl`: the half-maximal activity concentration (AC50) under setting [2] was 7.08 µM [falling, full curve, poor fit]. Regarding `Clc1ccc(C2=NN=C3COc4ccccc4N3C2)cc1`, the half-maximal activity concentration (AC50) was 0.141 µM [rising, full curve, poor fit] under setting [1] and 0.0891 µM [rising, full curve, poor fit] under setting [2].

As for `N=c1ccn(Cc2ccc(Cl)c(Cl)c2)cc1`, the AC50 runs as follows: under setting [1], 3.16 µM [rising, full curve]; under setting [2], 11.2 µM [rising, partial curve]. As to `CCOC(=O)c1ccc2c(c1)N(Cc1ccc(F)cc1Cl)C(=O)c1ccccc1S2`, the AC50 under setting [2] is 4.47 µM [rising, partial curve, poor fit]. In the case of `COc1ccc(OC)c(C(=O)CN2C(=O)N(c3ccc(C)cc3)S(=O)(=O)c3ccccc32)c1`, the AC50 under setting [1] is 11.2 µM [falling, partial curve, poor fit]. Regarding `O=C(CNC(=O)C12CC3CC(CC(C3)C1)C2)OCc1cc(=O)n2cc(Br)ccc2n1`, the AC50 under setting [2] is 0.0282 µM [falling, full curve, poor fit]. For the molecule `COc1ccccc1-c1nccc(NCc2cccc(C)c2)n1`, under setting [1], the AC50 was 6.31 µM [falling, full curve]. Consider `CC(C)Oc1cccc(C(=O)C2CCCN(Cc3cccn3-c3ccccn3)C2)c1` (stereo not drawn), for which the half-maximal activity concentration (AC50) runs as follows: under setting [1], 0.0112 µM [rising, full curve, poor fit]; under setting [2], 6.31 µM [rising, single point].

With `Cc1no[n+]([O-])c1COc1ccc(/C=N/n2nnnc2N)cc1`, under setting [1], the AC50 was 35.5 µM [rising, single point]. Still for that read-out and setting: the same measure for `CCC(C)NC(=O)c1ccccc1NC(=O)COc1ccc(OC)cc1` (stereo not drawn): 35.5 µM [falling, single point]. In the case of `Cc1ccc(S(=O)(=O)N(Cc2ccc(Cl)cc2)c2ccccc2C(=O)NCc2ccco2)cc1`, the AC50 is, setting by setting: under setting [1], 11.2 µM [falling, partial curve]; under setting [2], 12.6 µM [falling, single point]. With `CCOc1ccc(CC2c3cc(OCC)c(OCC)cc3CCN2C(=O)CN2CCN(C)CC2)cc1OCC` (stereo not drawn), under setting [2], the concentration at half-maximal activity (AC50) was 6.31 µM [rising, single point]. As for `COc1cccc(/C=C/C(=O)c2ccc[nH]2)c1`, the AC50 was 1.12 µM [falling, partial curve] under setting [1] and 14.1 µM [rising, single point] under setting [2]. Consider `Cc1ccccc1NC(=O)CCn1nc(-c2ccccc2)c2ccccc2c1=O`, for which, under setting [2], the concentration at half-maximal activity (AC50) is 0.0355 µM [falling, full curve, poor fit]. As to `COc1ccccc1N1CCN(c2csc3ccccc3c2=O)CC1`, the AC50 under setting [1] is 8.91 µM [falling, partial curve, poor fit]. With `Cc1ccccc1OCCn1cc(/C(N)=N/O)c2ccccc21`, the concentration at half-maximal activity (AC50) is 20 µM [rising, single point] under setting [1] and 31.6 µM [rising, single point] under setting [2]. On to `O=C(N/N=C/c1ccc(Br)cc1)c1ccccc1-n1cccc1`, for which the AC50 is 35.5 µM [falling, single point] under setting [1] and 35.5 µM [falling, single point] under setting [2]. For the molecule `COc1ccc(C(=O)Sc2ccc(Cl)cc2)cc1OC`, the half-maximal activity concentration (AC50) under setting [2] is 11.2 µM [falling, partial curve]. For `O=C(c1ccc2nc(-c3ccco3)c(-c3ccco3)nc2c1)N1CCN(c2ccccc2)CC1`, the AC50 reads like this: under setting [1], 14.1 µM [rising, single point]; under setting [2], 17.8 µM [rising, single point]. With `CN1CCN(C2=Nc3ccccc3Sc3ccc(Cl)cc32)CC1`, the concentration at half-maximal activity (AC50) under setting [1] is 2 µM [falling, partial curve, poor fit] and the AC50 under setting [2] is 0.02 µM [falling, full curve]. Consider `COc1ccccc1CNc1ccnc(-c2cccnc2)n1`, for which the concentration at half-maximal activity (AC50) under setting [1] was 11.2 µM [falling, partial curve, poor fit].

Regarding `Cc1ccc(NCCC(=O)c2ccc(Cl)cc2)cc1`, the half-maximal activity concentration (AC50) under setting [1] was 22.4 µM [falling, single point]. For the molecule `Cc1ccc(C(=O)Nc2sc3c(c2C(=O)O)CCCCC3)o1`, the AC50 runs as follows: under setting [1], 5.62 µM [rising, partial curve]; under setting [2], 11.2 µM [rising, partial curve]. Turning to `CCCCOc1ccc(N=Cc2cccs2)cc1`, the half-maximal activity concentration (AC50) under setting [2] was 2.51 µM [rising, partial curve, poor fit]. Still for that read-out and setting: next, `CCOc1cccc(-n2nnnc2-c2ccc(OC)cc2)c1`: 5.01 µM [rising, partial curve]. Take `COCCn1c(SCC(=O)N2CCCc3ccccc32)nc2ccccc2c1=O`: the AC50 by setting is: under setting [1], 12.6 µM [rising, single point]; under setting [2], 11.2 µM [rising, partial curve, poor fit].

For `O=C(NNc1nc(-c2ccccc2)c2cc(Br)ccc2n1)c1ccc(S(=O)(=O)N2CCCCC2)cc1`, the AC50 was 35.5 µM [rising, single point] under setting [1] and 25.1 µM [rising, single point] under setting [2].

In the case of `Cc1ccccc1CS(=O)(=O)c1cnc2ccccc2n1`, under setting [1], the AC50 was 35.5 µM [falling, single point]. On the same count and under the same terms, next, `Cc1cccc(N2CCN(C(=O)c3csc4ccccc34)CC2C)c1` (stereo not drawn): 35.5 µM [falling, single point].

Consider `Cc1cccc(C2=NN(c3ccc(Br)cc3)[C@@H](C(=O)N3CCOC3=O)[C@@H]2c2ccc(F)cc2)c1`, for which, under setting [2], the concentration at half-maximal activity (AC50) was 12.6 µM [rising, partial curve]. Take `CN(Cc1ccco1)c1ncnc2ccc(-c3cccnc3)cc12`: the AC50 was 14.1 µM [rising, partial curve] under setting [1] and 15.8 µM [rising, single point] under setting [2].

Turning to `CCCCNC(=O)C1CCN(c2nc3ccc(C)cc3[nH]2)CC1`, the half-maximal activity concentration (AC50) under setting [1] was 0.316 µM [rising, partial curve, poor fit].

Take `Cc1cccc(COCC(Cc2ccccc2)N2CCN(C(=O)c3cc(Cl)cc(Cl)c3)CCC2=O)c1` (stereo not drawn): the AC50 was 35.5 µM [rising, single point] under setting [1] and 35.5 µM [rising, single point] under setting [2]. Turning to `NC(=O)c1cccnc1Nc1cccc(F)c1`, the concentration at half-maximal activity (AC50) is 12.6 µM [rising, single point] under setting [1] and 11.2 µM [rising, partial curve, poor fit] under setting [2]. On to `COc1ccc(-n2c(NC(=O)c3ccc(Br)o3)c(C#N)c3nc4ccccc4nc32)cc1`, for which the AC50 under setting [1] is 10 µM [rising, partial curve, poor fit] and the half-maximal activity concentration (AC50) under setting [2] is 17.8 µM [rising, partial curve, poor fit]. As for `CN(C)C(=O)c1ccc(-c2nccc(NCc3ccccc3)n2)cc1`, the AC50 under setting [1] is 0.178 µM [falling, full curve, poor fit]. `Cc1occc1-c1nnc(SCCNCCO)o1`: the AC50 under setting [1] is 2 µM [falling, full curve] and the AC50 under setting [2] was 6.31 µM [falling, partial curve]. In the case of `CCN1CCN(CCCNC(=O)C2CCCN(c3nnc(-n4cccc4)s3)C2)CC1` (stereo not drawn), the AC50 was 25.1 µM [rising, partial curve, poor fit] under setting [1] and 15.8 µM [rising, partial curve, poor fit] under setting [2]. With `Cc1ccc(-c2nc(P(=O)(c3ccccc3)c3ccccc3)c(N3CCOCC3)o2)cc1`, the concentration at half-maximal activity (AC50) under setting [1] was 11.2 µM [rising, single point].

For `O=C(Nc1cccc(C(=O)O)c1)/C(=C\c1ccccc1)NC(=O)c1cccc2ccccc12`, the AC50 was 14.1 µM [falling, single point] under setting [1] and 14.1 µM [falling, single point] under setting [2].

Consider `Nc1cc(=O)[nH]c(SCc2cccc(Cl)c2)n1`, for which the concentration at half-maximal activity (AC50) under setting [2] was 35.5 µM [rising, single point].

Regarding `O=C(CN(C1CCCCC1)S(=O)(=O)c1ccc(Br)cc1)NCc1ccncc1`, the half-maximal activity concentration (AC50) is 3.55 µM [rising, single point] under setting [1] and 0.355 µM [rising, full curve, poor fit] under setting [2]. As to `CN1/C(=C\C=C(/C#N)C(=O)Nc2ccccc2F)C(C)(C)c2ccccc21`, the half-maximal activity concentration (AC50) by setting is: under setting [1], 5.01 µM [falling, full curve]; under setting [2], 3.98 µM [falling, full curve]. With `O=C(COc1ccc2c(c1)C(=O)CC1(CCCCC1)O2)NCc1ccccc1`, the half-maximal activity concentration (AC50) is 12.6 µM [rising, single point] under setting [1] and 17.8 µM [rising, single point] under setting [2]. Consider `Clc1ccc(SCCCCN2CCNCC2)cc1`, for which the AC50 under setting [2] is 7.08 µM [rising, partial curve].

Broadly, the AC50 is the concentration at which the activity in the assay is half-maximal.
